The values below come from the supplement of paper PMC6411743.

Protein sequences, listed by entry. Tags and fused reporters are not part of them. Lines headed by an entry give the natural chain unless they say otherwise; changes in a name come on top.
UniProt Q9Y6G9, whole entry: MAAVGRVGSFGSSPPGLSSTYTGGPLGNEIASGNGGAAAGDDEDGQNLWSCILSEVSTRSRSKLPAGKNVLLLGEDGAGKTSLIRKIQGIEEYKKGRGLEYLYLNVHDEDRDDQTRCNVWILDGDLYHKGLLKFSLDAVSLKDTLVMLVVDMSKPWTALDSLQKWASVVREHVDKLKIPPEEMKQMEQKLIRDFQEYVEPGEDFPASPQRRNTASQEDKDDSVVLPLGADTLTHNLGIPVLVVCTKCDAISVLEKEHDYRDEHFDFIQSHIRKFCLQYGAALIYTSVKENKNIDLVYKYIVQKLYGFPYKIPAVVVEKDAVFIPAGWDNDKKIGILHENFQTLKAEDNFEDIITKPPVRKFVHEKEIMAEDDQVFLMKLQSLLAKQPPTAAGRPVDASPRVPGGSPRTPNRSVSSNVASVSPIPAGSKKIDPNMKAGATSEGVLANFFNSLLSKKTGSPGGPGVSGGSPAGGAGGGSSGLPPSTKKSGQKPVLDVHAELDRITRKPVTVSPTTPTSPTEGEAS
UniProt Q9Y5V3: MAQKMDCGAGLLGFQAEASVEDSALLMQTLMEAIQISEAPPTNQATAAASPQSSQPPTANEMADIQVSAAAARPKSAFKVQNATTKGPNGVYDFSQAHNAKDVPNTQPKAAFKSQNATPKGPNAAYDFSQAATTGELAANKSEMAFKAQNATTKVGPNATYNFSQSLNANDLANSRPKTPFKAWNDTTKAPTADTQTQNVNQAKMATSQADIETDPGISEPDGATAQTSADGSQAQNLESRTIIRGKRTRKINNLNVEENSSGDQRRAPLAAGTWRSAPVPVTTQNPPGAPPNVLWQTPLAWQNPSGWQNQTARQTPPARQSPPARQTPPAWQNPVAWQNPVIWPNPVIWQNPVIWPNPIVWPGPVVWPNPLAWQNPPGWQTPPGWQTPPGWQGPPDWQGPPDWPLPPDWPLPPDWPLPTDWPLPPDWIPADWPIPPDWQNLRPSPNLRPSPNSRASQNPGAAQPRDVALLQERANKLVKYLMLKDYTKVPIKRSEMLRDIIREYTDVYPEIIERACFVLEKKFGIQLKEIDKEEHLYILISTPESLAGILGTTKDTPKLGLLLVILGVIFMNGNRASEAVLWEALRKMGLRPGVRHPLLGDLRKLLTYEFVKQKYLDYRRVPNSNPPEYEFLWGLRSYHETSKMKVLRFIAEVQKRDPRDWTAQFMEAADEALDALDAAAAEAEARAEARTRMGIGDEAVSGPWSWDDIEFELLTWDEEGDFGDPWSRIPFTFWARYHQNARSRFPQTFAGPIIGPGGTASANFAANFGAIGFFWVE
UniProt Q9Y6A4: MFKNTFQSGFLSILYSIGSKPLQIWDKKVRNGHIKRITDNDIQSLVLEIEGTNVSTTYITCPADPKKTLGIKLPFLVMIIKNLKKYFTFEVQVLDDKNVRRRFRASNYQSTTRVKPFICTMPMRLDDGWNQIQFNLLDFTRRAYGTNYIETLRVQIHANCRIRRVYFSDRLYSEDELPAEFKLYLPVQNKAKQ
UniProt Q9Y2H1: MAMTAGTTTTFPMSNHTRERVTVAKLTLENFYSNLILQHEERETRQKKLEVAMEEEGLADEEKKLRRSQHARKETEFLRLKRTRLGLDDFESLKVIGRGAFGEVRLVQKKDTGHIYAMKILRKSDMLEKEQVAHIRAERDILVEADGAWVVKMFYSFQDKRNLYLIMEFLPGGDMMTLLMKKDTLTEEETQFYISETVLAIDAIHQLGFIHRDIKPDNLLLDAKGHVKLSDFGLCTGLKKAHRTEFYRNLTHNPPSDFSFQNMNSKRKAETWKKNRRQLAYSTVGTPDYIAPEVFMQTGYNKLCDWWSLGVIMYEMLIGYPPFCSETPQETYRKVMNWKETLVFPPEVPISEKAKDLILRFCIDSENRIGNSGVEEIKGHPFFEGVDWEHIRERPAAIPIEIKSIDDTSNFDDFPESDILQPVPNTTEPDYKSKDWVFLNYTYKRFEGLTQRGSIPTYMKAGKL
UniProt Q9Y2U5: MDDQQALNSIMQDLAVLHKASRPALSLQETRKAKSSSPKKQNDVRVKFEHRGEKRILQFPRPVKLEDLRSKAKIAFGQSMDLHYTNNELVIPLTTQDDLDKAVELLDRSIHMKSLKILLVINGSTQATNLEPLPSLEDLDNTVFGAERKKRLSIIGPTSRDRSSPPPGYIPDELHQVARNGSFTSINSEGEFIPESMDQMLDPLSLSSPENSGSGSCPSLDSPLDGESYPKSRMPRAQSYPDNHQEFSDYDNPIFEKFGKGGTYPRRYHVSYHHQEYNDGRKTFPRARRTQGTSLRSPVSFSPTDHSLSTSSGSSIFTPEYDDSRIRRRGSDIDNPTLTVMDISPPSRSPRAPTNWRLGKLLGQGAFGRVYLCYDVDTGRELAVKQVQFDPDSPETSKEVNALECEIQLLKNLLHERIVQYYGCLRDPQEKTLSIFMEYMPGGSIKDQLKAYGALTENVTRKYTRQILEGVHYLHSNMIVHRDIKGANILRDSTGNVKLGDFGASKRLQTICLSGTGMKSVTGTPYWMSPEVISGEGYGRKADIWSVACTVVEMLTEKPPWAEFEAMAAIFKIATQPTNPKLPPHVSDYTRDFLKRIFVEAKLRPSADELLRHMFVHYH
UniProt Q9Y5X2: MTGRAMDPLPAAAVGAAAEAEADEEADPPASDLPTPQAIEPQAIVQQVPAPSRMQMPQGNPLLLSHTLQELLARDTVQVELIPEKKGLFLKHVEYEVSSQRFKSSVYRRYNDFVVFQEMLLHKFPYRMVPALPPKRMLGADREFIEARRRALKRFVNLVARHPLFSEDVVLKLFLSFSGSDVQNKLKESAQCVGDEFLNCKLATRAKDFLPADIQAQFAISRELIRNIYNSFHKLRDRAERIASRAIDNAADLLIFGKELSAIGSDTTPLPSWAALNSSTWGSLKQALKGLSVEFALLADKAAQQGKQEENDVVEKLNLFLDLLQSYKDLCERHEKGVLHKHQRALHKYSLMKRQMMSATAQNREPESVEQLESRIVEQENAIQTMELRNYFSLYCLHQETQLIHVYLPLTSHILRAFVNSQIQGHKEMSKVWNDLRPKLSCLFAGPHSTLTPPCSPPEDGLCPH
UniProt Q9Y678: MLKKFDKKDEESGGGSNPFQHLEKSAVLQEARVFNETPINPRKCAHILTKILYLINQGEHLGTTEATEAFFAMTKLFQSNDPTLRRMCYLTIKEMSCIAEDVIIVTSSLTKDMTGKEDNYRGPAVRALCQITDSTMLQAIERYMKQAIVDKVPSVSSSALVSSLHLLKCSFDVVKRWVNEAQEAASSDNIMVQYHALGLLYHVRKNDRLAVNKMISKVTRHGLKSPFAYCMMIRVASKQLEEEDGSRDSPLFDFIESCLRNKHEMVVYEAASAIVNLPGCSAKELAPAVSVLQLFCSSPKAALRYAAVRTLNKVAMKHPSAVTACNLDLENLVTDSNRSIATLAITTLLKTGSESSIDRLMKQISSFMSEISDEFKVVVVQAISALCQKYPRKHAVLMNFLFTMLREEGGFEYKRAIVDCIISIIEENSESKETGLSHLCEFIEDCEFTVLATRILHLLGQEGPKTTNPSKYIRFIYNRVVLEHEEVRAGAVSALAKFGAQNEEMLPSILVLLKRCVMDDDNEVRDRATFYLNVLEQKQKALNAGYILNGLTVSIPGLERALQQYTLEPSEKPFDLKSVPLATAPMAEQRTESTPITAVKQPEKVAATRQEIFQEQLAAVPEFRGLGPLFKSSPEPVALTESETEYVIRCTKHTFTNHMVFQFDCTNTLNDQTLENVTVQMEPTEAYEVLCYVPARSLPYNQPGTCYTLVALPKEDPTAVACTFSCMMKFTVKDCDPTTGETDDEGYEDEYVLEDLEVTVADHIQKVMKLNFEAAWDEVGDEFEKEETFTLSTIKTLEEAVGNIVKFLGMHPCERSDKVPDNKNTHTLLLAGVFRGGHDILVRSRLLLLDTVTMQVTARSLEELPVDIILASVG
UniProt Q9Y3S2: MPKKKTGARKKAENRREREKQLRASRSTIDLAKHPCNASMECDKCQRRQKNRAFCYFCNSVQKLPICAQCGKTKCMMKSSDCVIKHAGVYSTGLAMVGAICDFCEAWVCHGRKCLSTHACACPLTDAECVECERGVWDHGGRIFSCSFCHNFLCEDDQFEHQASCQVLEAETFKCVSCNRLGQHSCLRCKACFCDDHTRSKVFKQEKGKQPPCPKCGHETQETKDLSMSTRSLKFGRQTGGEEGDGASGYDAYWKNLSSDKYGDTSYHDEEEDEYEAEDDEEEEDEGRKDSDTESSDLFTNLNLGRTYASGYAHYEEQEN
UniProt Q9Y2V2: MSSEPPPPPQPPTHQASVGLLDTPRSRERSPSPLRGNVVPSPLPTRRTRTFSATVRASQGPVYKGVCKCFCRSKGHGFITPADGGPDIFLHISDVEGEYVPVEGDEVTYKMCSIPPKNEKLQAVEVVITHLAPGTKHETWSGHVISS
UniProt Q9Y5M8: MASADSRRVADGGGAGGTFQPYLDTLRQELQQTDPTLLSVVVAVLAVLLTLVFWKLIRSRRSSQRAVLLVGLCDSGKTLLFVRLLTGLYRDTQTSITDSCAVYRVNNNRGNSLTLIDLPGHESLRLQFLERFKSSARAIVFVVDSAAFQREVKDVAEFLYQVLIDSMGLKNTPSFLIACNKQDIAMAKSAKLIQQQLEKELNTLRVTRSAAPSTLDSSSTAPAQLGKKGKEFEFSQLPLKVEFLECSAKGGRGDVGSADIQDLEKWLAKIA
UniProt Q9UQR1: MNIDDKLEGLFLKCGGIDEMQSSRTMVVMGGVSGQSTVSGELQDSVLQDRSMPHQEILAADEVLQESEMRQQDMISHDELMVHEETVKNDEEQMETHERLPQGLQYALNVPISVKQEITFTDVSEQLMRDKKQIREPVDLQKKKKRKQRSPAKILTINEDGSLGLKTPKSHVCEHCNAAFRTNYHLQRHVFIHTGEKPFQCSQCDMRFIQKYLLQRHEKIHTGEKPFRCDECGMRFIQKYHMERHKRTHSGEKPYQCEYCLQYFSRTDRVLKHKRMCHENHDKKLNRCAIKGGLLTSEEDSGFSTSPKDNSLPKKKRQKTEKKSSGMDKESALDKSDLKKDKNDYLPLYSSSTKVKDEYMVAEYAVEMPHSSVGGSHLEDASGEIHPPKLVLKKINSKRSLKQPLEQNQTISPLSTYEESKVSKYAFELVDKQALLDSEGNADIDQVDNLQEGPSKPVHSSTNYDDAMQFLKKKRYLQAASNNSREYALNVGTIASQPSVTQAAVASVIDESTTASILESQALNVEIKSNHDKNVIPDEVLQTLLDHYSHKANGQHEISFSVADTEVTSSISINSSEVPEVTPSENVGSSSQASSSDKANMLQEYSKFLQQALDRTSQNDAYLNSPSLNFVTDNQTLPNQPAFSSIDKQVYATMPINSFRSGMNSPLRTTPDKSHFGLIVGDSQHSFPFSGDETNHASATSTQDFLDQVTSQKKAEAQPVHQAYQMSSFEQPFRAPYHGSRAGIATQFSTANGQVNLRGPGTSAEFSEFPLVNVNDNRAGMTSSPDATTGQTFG
UniProt Q9Y294, whole entry: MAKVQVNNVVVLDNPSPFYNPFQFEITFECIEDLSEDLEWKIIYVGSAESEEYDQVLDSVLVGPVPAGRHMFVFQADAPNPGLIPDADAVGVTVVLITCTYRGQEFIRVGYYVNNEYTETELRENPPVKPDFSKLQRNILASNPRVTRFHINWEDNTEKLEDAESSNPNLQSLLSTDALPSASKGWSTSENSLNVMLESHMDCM
UniProt Q9Y478: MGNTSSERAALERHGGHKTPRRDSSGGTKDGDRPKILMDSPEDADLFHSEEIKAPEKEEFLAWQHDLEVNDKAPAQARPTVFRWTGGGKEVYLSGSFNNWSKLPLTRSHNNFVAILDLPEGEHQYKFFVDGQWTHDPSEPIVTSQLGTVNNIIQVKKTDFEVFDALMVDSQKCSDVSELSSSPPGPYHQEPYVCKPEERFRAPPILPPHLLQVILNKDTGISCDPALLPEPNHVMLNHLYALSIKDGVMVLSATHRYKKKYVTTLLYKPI
UniProt Q9Y2Z0: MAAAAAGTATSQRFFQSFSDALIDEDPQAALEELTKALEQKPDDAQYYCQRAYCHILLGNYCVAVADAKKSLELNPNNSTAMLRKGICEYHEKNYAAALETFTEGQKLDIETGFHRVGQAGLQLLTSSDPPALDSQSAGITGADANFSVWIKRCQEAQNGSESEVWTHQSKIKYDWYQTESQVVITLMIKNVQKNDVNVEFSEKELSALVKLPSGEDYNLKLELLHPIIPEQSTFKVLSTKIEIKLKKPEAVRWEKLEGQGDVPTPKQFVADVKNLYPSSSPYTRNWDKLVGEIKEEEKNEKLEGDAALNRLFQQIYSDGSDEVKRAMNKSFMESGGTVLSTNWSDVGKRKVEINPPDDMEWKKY
UniProt Q9Y3Y2: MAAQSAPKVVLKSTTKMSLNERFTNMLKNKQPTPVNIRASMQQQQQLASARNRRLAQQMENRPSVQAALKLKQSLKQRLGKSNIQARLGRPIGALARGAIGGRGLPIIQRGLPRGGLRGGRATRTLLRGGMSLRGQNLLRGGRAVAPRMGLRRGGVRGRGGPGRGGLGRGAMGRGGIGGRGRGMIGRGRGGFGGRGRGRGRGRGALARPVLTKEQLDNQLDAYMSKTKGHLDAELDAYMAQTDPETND

± gives the standard deviation of the averaged measurements. Some of the results follow.

Compound in one assay: Nc1nc2c(ncn2[C@@H]2O[C@H](COP(=O)(O)OP(=O)(O)OP(=O)(O)O)[C@@H](O)[C@H]2O)c(=O)[nH]1 [guanosine triphosphate]
Description: NP40-soluble protein abundance relative to vehicle (solubility fold change) (ratio); higher = more soluble protein in presence of GTP. The conditions noted are these: concentration: 8mM. Summed up: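 Values are fold changes against the detergent-processed vehicle, based on vsn-normalised intensities. Jurkat crude lysate was treated at eight concentrations from 0.1 to 10 mM (10 min at room temperature, then 3 min at 37 °C), solubilised with 0.8% NP40 and benzonase, ultracentrifuged and analysed by TMT-labelled LC-MS/MS over three independent experiments.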
As to DYNC1LI1 (UniProt Q9Y6G9), the NP40-soluble protein abundance is 1.17 ± 0.18.
In the case of UniProt Q9Y5V3 and related entries, the NP40-soluble protein abundance came to 1.12 ± 0.17.
The same measure, in the same setting: the figure for UniProt Q9Y3C4 and related entries is 0.918 ± 0.056; for CHKB (UniProt Q9Y259) it is 1 ± 0.097.
UniProt Q9Y6A4: the NP40-soluble protein abundance is 1.01 ± 0.05.
On to ARIH1 (UniProt Q9Y4X5), for which the NP40-soluble protein abundance was determined as 0.944 ± 0.051.
The same measure, in the same setting: with TLN2 (UniProt Q9Y4G6) the figure was 0.925 ± 0.087; with UniProt Q9Y3D0, 1.04 ± 0.089; with AP4E1 (UniProt Q9UPM8), 1.13 ± 0.025.
In the case of RBM19 (UniProt Q9Y4C8), the NP40-soluble protein abundance is 1.38 ± 0.078.

The assay is the same for the next values; noted with them: concentration: 10mM.
In the case of UniProt Q9Y3B7 and related entries, the NP40-soluble protein abundance was found to be 1.49 ± 0.5.
Same read-out and setting: the figure for UniProt Q9UMZ2 and related entries is 0.918 ± 0.034.
For RABGAP1 (UniProt Q9Y3P9), the NP40-soluble protein abundance was 0.925 ± 0.021.
In the case of UniProt Q9Y639 and related entries, the NP40-soluble protein abundance is 0.994 ± 0.081.
On the same count and under the same terms, with UniProt Q9Y697 and related entries the figure was 0.922 ± 0.068; with UniProt Q9Y2H1, 0.929 ± 0.089; with ENPP4 (UniProt Q9Y6X5), 0.951 ± 0.11.
The same measure, in the same setting: with UniProt Q9Y2G2 and related entries the figure was 0.92 ± 0.09; with UniProt Q9Y2U5, 0.921 ± 0.021; with SNX8 (UniProt Q9Y5X2), 0.932 ± 0.055.
As to YARS2 (UniProt Q9Y2Z4), the NP40-soluble protein abundance came to 0.885 ± 0.068.
For UniProt Q9Y2X0-2|Q9Y2X0-3|Q9Y2X0, the NP40-soluble protein abundance was 1.04 ± 0.19.
Turning to UniProt Q9Y678, the NP40-soluble protein abundance came to 1.01 ± 0.049.
UniProt Q9UN86-2|Q9UN86: the NP40-soluble protein abundance was found to be 1.21 ± 0.11.
On to ZNF330 (UniProt Q9Y3S2), for which the NP40-soluble protein abundance stood at 0.953 ± 0.082.
For UniProt Q9Y2V2 and related entries, the NP40-soluble protein abundance came to 0.932 ± 0.054.
For the target SRPRB (UniProt Q9Y5M8), the NP40-soluble protein abundance amounted to 0.962 ± 0.077.
On the same count and under the same terms, the figure for SLC5A6 (UniProt Q9Y289) is 1.01 ± 0.051.
As for SMC3 (UniProt Q9UQE7), the NP40-soluble protein abundance stood at 1.01 ± 0.024.
Take LEMD3 (UniProt Q9Y2U8): the NP40-soluble protein abundance stood at 0.985 ± 0.027.
As for ZNF148 (UniProt Q9UQR1), the NP40-soluble protein abundance came to 0.944 ± 0.013.
Take TELO2 (UniProt Q9Y4R8): the NP40-soluble protein abundance came to 0.91 ± 0.048.
On to ICE1 (UniProt Q9Y2F5), for which the NP40-soluble protein abundance was found to be 1.38 ± 0.054.
In the case of ASF1A (UniProt Q9Y294), the NP40-soluble protein abundance came to 0.807 ± 0.047.
Consider PRKAB1 (UniProt Q9Y478), for which the NP40-soluble protein abundance came to 0.937 ± 0.061.
UniProt Q9Y4P8 and related entries: the NP40-soluble protein abundance was found to be 0.896 ± 0.021.
For the target SUGT1 (UniProt Q9Y2Z0), the NP40-soluble protein abundance was 0.829 ± 0.079.
UniProt Q9Y3Y2 and related entries: the NP40-soluble protein abundance was found to be 1.49 ± 0.057.
On the same count and under the same terms, with DYNC1LI1 (UniProt Q9Y6G9) the figure was 1.17 ± 0.2; with UniProt Q9Y5V3 and related entries, 1.12 ± 0.13.
For the target UniProt Q9Y3C4 and related entries, the NP40-soluble protein abundance amounted to 0.941 ± 0.017.
Regarding CHKB (UniProt Q9Y259), the NP40-soluble protein abundance came to 0.965 ± 0.16.
The same measure, in the same setting: the figure for UniProt Q9Y6A4 is 0.957 ± 0.11; for ARIH1 (UniProt Q9Y4X5) it is 0.924 ± 0.085; for TLN2 (UniProt Q9Y4G6) it is 1.02 ± 0.19.
UniProt Q9Y3D0: the NP40-soluble protein abundance stood at 1.09 ± 0.17.
For the target AP4E1 (UniProt Q9UPM8), the NP40-soluble protein abundance is 0.989 ± 0.048.
As to RBM19 (UniProt Q9Y4C8), the NP40-soluble protein abundance amounted to 1.38 ± 0.13.
